The source of these data is patent US7754462B2, “Enzyme catalysis in the presence of ionic liquids” (priority 2000, dated 2010).

In data set [1] the test system is β-Galactosidase from Bacillus circulans. Put plainly: Synthesis of N-acetyl lactosamine by β-galactosidase (transgalactosylation) with ionic liquid. The class given is biochemical.
The test system is the same in data set [2]. Put plainly: Synthesis of lactose by reverse hydrolysis in water/ionic liquid mixture. Type of data set: biochemical. Conditions: 35° C., 24 h.
Setting [3] is: fraction 12.5 vol %, Lactose/GlcNAc ratio 1:2.4.
[4] abbreviates: fraction 18.75 vol %, Lactose/GlcNAc ratio 1:2.4.

Take “Methyl-methyl-imidazolium-methyl sulphate [MMIm^+ MeSO4^−]”: the “Yield [%] after 60 min (N-acetyl lactosamine)” value in data set [1] (setting [3]) is given as 40%; in data set [1] (setting [4]), 44%; in data set [1] (fraction 25 vol %, Lactose/GlcNAc ratio 1:4.8), 49%. Moreover, the “Yield [%] after 100 min (N-acetyl lactosamine)” value in data set [1] (setting [3]) is listed as 40%; in data set [1] (setting [4]) it was 43%; in data set [1] (fraction 25 vol %, Lactose/GlcNAc ratio 1:4.8, cell says (90 min)), 55%. Moreover, the “Yield [%] (lactose)” value was determined as 0% in data set [2] (fraction of ionic liquid 10 %); 0% in data set [2] (fraction of ionic liquid 20 %); 4% in data set [2] (fraction of ionic liquid 30 %); 12% in data set [2] (fraction of ionic liquid 40 %); 15% in data set [2] (fraction of ionic liquid 50 %); 15% in data set [2] (fraction of ionic liquid 60 %). The “Yield [%] (lactose)” value is 16% in data set [2] (fraction of ionic liquid 70 %), 16% in data set [2] (fraction of ionic liquid 80 %), 16% in data set [2] (fraction of ionic liquid 90 %) and 17% in data set [2] (fraction of ionic liquid 100 % (water content 0.6%)).
